Source: publication PMC4895335

What was measured:
[1] = target: T1, Ms4022 (TetR family regulator) (Mycobacterium smegmatis mc2 155) (UniProt A0QZH0); assay: EMSA; details: EMSA: 50 mM Tris-HCl pH 7.5, 10 mM MgCl2, 50 mM NaCl, 4 C 30 min, 5% native PAGE in 0.5x TBE at room temperature, recombinant protein, protein details: N-terminal His (pET28a)
T1 sequence (looked up, limits assumed): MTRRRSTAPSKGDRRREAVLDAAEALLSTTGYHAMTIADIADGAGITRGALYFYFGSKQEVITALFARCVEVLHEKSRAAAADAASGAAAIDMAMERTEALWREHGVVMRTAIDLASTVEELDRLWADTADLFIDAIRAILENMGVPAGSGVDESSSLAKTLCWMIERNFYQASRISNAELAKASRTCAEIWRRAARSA

[2] = target: T1, Ms4022 (TetR family regulator) (Mycobacterium smegmatis mc2 155); assay: DNase I footprinting; details: footprinting: binding as in EMSA, DNase I at 37 C; recombinant protein; protein details: N-terminal His (pET28a); probe letters rebuilt from the primers and the genome
[3] = target: T1, Ms4022 (TetR family regulator) (Mycobacterium smegmatis mc2 155); assay: competition with a labelled probe; details: unlabelled competitor vs labelled Ms4022p; EMSA: 50 mM Tris-HCl pH 7.5, 10 mM MgCl2, 50 mM NaCl, 4 C 30 min, 5% native PAGE in 0.5x TBE at room temperature; recombinant protein; protein details: N-terminal His (pET28a); probe letters rebuilt from the primers and the genome

Row | Sequence | binding result ([1]; probe letters rebuilt from the primers and the genome) | binding result [2] | binding result [3] | binding result [1]
1 | GACGGAATTCACTTGACCCGACGGAGATCGACCGCGCCGAGCAAAGGCGACCGGCGACGCGAAGCGGTGTTGGACGCGGCCGAGGCTCTCCTGAGCACGACGGGTTATCACGCGATGACGATCGCGGATATTGCCGACGGCGCGGGCATCACCCGCGGTGCGCTCTACTTCTACTTCGGCTCGAAGCAGGAGGTCATCACAGCTCTGTTTGCGCGCTGCGTCGAAGTGCTGCACGAGAAGTCCCGAGCAGCGGCCGCTGACGCCGCCAGCGGGGCCGCCGCCATCGATATGGCGATGGAGCGCACGGAGGCGCTGTGGCGCGAGCACGGCGTGGTGATGCGCACGGCGATCGATCTCGCTTCCACCGTCGAGGAGCTCGACAGGCTGTGGGCCGATACCGCCGATCTGTTCATCGACGCCATCAGGGCGATCTTGGAGAACATGGGAGTGCCGGCAGGTTCAGGCGTGGACGAATCCTCGTCGCTCGCCAAAACGTTGTGCTGGATGATCGAACGGAACTTCTATCAGGCCTCACGGATTTCGAACGCAGAACTGGCGAAGGCGAGTCGGACCTGTGCCGAGATCTGGCGGCGGGCTGCGCGCAGCGCATGATCTAGAATAT (double strand) [Ms4022p] | binds | binds | binds | –
2 | CCGCCATCTCAATAAGCACAGTGTCGAAAAAAATAAGCA (double strand) [F1] | – | – | – | binds

The exact form of at least one protein or probe is not confirmed. For some of these results: At least one verdict was read from the data and is not stated in words by the source. Tags and fusion partners may be left off the protein sequences shown.
